# Reference: PubChem BioAssay AID651706 (NMMLSC, 2012)
# Some of the results follow. The main result of the screen is listed elsewhere. These columns were measured beside it and carry no call. Most of these compounds were active or inconclusive in the main read-out, so they are no random draw.
# Experiment: inducers of myeloid progenitor differentiation, confirmation, cell-based, GFP/Mac1 flow cytometry, cherry pick 01 (AID 651706);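 note: share of live cells carrying both lysozyme GFP and MAC1 staining after four days; test concentration not given here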
# Settings: ER-HoxA9 myeloid progenitors, measured here: percent double positive cells, stronger effect = higher value
row,SMILES,double positive cells [%]
1,CC(=O)Nc1ccc(C2=CC(=O)C[C@H](c3ccc(Cl)cc3)C2)cc1,5.65
2,Cn1c(=O)c2cc(NC(=O)NCc3ccc(F)cc3)ccc2n1C/C=C/c1ccccc1,51.9
3,O=C(O)c1ccccc1N/N=C/c1c(Sc2nnnn2-c2ccccc2)nc2ccccn2c1=O,5.65
4,O=c1[nH][nH]cc1C=Nc1ccccc1O,8.3
5,C#CC[N+](CC)(CC)CC#Cc1ccccc1,5
6,O=C(O)c1ccccc1Nc1ccc([N+](=O)[O-])cc1,19.5
7,CCCCOc1ccc(OC(=O)Nc2cc(Cl)ccc2OC)cc1,2.15
8,Nc1ccc(C#Cc2ccc3c(=O)c4ccccc4oc3c2)cc1,5.7
9,CCC(CO)n1c(SCc2cc(=O)oc3cc(C)ccc23)nc2ccccc2c1=O (stereo not drawn),5
10,Clc1ccc(Cn2ncc3c(N4CCN(c5ccccc5)CC4)ncnc32)cc1,7.2
11,Cc1ccc(-c2nn3c(C)nnc3s2)cc1NC(=O)CSc1ccc(Cl)cc1,10.7
12,COC(=O)c1cc2c(=O)c3ccccc3oc2nc1/C=C/N(C)C,12.1
13,C/C(N)=C(/C#N)C(=O)COC(=O)c1cc(C)n(-c2ccc(F)cc2)c1C,9.35
14,CCOC(=O)c1c(NC(=O)c2nn(CC)cc2Br)c(C#N)cn1-c1ccccc1,1.6
15,O=C(O)c1cccnc1Nc1ccc(Cl)cc1,11.5
16,C/C(=C1/SC(N2CCCC2)=NC1=O)c1ccc(Br)cc1,14.2
17,O=C(CCNC(=O)c1ccc(Br)cc1)NC1CCCc2ccccc21 (stereo not drawn),12.4
18,Cc1cccc(N2CCN(C(=O)c3ccc4c(c3)OCCO4)CC2)c1C,5.95
19,Cc1cccn2cc(COc3ccc(-c4ccccc4)cc3)nc12,8.1
20,COc1ccc(C)cc1NC(=O)n1ncc2cc(Cl)ccc21,5.5
21,N#C/C(=C\Nc1ccc2cn[nH]c2c1)c1nc(-c2ccc(Cl)cc2)cs1,5.05
22,Cc1ccc(Nc2nc(=O)c3cccnc3s2)c(Br)c1,13.4
23,COc1cc2c(cc1OC)-c1cc3ccc4c(c3c[n+]1CC2)OCO4,5.05
24,COc1ccccc1C1N(c2ccc(Cl)cc2)C(=O)C2CCCN21 (stereo not drawn),11.4

row,SMILES,double positive cells [%]
1,CNC(=O)c1c(NC(=O)c2ccc(S(=O)(=O)N3CCCc4ccccc43)cc2)sc2c1CCN(C)C2,8.85
2,COc1ccc(/C=C/C(O)=C2/C(=O)N(C)C3(C)CC2c2ccccc2O3)cc1 (stereo not drawn),6.9
3,CCCCn1c(N)c(N(CC(C)C)C(=O)Cc2ccc(S(=O)(=O)N3CCOCC3)s2)c(=O)[nH]c1=O,5.55
4,CCC(C)Sc1ccc(-c2nc3cc(C)ccn3c2NC2CCCCC2)cc1 (stereo not drawn),7.1
5,CN(Cc1ccc(Cl)c(Cl)c1)C(=O)C1=CC=CN2CCS(=O)(=O)N=C12,5.5
6,CC(=O)c1c(N2CCOCC2)[nH]c(-c2ccccc2)nc1=S,12.3
7,COc1ccc(-n2c(C)cc(/C=C3\SC(=S)N(Cc4ccco4)C3=O)c2C)cc1,6.85
8,COc1ccc(/C=C/c2cccc[n+]2C)c(O)c1,12.1
9,N#C/C(=C\N1CCN(Cc2ccc3c(c2)OCO3)CC1)c1nc2ccccc2s1,7.4
10,CCCc1nc2c3ccccc3ccn2c1Cc1ccc(OC)cc1C,14.2
11,O=[N+]([O-])c1ccc(C[n+]2cccc3c4ccccc4ccc32)cc1,5.35
12,C[n+]1ccccc1/C=C/c1ccc2ncccc2c1,4.55
13,Cn1ccc2c(-c3ccc(C(C)(C)C)cc3)cc3c(c21)C1CCC3O1 (stereo not drawn),7.2
14,CCS(=O)(=O)c1nc(S(=O)(=O)c2ccc(Cl)cc2)c(N2CCC3(CC2)OCCO3)s1,5.55
15,Brc1ccc(-c2csc3[n+]2CCCCC3)cc1,5.75
16,COc1ccccc1CN(Cc1nc2ccccc2c(=O)[nH]1)C(=O)Nc1ccc(C)cc1,4.6
17,C[n+]1c(/C=C/c2ccc3c(c2)OCO3)ccc2ccccc21,6.1
18,Cc1nn(-c2ccccc2)c(N2CCCC2)c1/C=N/NC(=S)Nc1ccccc1F,8.3
19,Cc1ccc(OCc2nnc(SCc3nc4ccccc4[nH]3)n2Cc2ccco2)cc1,17.8
20,COc1ccc(NC2=C(NC(C)=O)C(=O)c3ccccc3C2=O)cc1,11.3
21,O=C(CCCN1C(=O)/C(=C/c2ccco2)SC1=S)Nc1cccc(C(=O)O)c1,5.45
22,Cn1c(-c2ccccc2)c[n+]2c1-c1ccccc1C2,5.2
23,COc1ccc(NC(=S)N2CCC3CC2c2c(Cl)cccc23)c(OC)c1 (stereo not drawn),13.5
24,CCOc1ccccc1Nc1nc2ccc(C)cc2n2cnnc12,10.1

# As a working copy, some entries already given:
row,SMILES,double positive cells [%]
2,COc1ccc(/C=C/C(O)=C2/C(=O)N(C)C3(C)CC2c2ccccc2O3)cc1 (stereo not drawn),6.9
3,CCCCn1c(N)c(N(CC(C)C)C(=O)Cc2ccc(S(=O)(=O)N3CCOCC3)s2)c(=O)[nH]c1=O,5.55
4,CCC(C)Sc1ccc(-c2nc3cc(C)ccn3c2NC2CCCCC2)cc1 (stereo not drawn),7.1
5,CN(Cc1ccc(Cl)c(Cl)c1)C(=O)C1=CC=CN2CCS(=O)(=O)N=C12,5.5
